According to patent publication US20190374506A1, “COMPOSITIONS AND METHODS FOR TREATING CANCER” (BETH ISREAL DEACONESS MEDICAL CENTER, priority 2016, published 2019):
No constants are given. Whether binding was seen depends on the method and setting. Some entries that bind do so weakly or less than the wild type.

Amino acid sequences for entries named in this document (tags omitted). A change or cut given only in a name is not applied to a line headed by its entry. Chains listed by the source or under a name are the forms on record and can include a tag or linker.
UniProt P60484: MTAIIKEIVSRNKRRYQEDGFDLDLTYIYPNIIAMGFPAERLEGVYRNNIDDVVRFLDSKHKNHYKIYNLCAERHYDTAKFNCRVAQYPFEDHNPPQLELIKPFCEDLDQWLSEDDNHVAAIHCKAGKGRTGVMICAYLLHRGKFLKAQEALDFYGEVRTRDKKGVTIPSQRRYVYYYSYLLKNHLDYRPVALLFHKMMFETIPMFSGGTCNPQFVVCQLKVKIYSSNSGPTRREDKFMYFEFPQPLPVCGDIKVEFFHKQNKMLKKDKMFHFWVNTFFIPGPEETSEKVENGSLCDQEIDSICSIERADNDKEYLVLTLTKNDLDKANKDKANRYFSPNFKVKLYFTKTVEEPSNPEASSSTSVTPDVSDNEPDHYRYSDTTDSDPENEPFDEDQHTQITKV
Isoform p135 of Dynactin subunit 1 (Q14203-2, form named): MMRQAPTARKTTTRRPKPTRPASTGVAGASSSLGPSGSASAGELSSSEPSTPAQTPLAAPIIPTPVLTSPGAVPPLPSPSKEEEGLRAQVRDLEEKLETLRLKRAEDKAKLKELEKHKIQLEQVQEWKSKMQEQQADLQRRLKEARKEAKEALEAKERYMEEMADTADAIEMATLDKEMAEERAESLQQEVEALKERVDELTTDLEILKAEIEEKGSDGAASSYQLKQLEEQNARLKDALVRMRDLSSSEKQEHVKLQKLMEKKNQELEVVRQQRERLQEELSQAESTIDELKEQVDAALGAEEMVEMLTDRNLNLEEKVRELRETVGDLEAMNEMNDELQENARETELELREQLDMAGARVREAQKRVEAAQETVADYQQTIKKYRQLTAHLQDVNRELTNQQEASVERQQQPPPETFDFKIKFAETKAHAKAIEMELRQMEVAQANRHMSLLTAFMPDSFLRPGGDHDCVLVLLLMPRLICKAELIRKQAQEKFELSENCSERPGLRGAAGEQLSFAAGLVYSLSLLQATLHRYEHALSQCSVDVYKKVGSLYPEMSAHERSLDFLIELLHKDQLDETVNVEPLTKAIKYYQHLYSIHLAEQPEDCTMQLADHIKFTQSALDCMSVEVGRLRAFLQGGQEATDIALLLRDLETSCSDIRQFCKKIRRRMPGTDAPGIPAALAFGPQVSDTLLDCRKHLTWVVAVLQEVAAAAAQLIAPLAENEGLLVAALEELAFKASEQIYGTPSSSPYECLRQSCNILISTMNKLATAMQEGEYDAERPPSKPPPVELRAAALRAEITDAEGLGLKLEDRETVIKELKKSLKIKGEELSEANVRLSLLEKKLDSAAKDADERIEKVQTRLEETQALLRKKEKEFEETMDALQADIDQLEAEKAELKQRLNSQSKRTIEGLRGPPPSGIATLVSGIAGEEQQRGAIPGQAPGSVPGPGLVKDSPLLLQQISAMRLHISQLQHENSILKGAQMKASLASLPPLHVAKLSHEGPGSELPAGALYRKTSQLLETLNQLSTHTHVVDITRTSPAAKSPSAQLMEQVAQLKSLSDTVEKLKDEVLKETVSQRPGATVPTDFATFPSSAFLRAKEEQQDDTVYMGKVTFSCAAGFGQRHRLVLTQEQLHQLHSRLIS
Isoform 2 of DNA repair protein RAD50 (Q92878-2, form named): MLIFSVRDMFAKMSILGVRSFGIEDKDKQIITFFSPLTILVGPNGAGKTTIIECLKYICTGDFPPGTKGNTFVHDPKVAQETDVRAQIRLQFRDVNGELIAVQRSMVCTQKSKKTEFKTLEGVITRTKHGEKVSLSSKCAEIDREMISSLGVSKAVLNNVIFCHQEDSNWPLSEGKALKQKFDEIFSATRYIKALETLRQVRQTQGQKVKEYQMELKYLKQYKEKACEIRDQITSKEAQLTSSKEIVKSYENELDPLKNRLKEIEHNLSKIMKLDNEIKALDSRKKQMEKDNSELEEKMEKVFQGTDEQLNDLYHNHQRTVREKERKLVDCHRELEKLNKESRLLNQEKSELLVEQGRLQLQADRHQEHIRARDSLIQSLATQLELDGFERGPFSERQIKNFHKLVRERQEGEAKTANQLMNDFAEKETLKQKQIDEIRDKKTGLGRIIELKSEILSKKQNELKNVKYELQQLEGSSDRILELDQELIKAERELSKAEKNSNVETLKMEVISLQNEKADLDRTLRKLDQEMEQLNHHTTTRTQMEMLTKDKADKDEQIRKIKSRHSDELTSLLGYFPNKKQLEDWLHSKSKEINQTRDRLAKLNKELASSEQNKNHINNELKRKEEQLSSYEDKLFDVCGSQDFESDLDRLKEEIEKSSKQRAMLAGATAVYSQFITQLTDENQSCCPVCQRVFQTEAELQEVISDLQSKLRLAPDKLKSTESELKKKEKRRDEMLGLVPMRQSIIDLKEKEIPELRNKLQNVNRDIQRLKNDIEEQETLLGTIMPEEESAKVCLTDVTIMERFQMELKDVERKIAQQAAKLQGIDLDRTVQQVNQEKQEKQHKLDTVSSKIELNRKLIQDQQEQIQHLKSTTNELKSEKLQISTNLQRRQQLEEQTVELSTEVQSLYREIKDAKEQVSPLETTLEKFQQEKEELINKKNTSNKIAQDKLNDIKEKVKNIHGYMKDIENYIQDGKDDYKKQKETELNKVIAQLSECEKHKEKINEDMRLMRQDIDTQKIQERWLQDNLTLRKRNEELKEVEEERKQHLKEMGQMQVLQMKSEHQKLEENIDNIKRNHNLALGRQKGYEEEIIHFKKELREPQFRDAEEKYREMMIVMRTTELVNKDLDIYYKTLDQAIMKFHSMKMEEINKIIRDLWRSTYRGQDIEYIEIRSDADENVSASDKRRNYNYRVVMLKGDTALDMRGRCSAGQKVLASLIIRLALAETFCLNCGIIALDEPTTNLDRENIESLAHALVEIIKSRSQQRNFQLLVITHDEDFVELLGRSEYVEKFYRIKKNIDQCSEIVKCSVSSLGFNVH

Target: HA-PTEN (human) (UniProt P60484)
Test: anti-PTEN immunoprecipitation from DU145 cells transfected with HA-PTEN, SDS-PAGE, mass-spectrometric peptide sequencing of the bands (association in the precipitate)

binding	Substance
binds	Isoform p135 of Dynactin subunit 1 (from UniProt Q14203-2)
binds	Isoform 2 of DNA repair protein RAD50 (from UniProt Q92878-2)
